Results taken from publication PMC12279241.
No constants are given. Whether binding was seen depends on the method and setting. Binding seen in cells or lysates may run through a third protein.

Protein sequences, listed by entry. Tags and fused reporters are not part of them.
UniProt P27986: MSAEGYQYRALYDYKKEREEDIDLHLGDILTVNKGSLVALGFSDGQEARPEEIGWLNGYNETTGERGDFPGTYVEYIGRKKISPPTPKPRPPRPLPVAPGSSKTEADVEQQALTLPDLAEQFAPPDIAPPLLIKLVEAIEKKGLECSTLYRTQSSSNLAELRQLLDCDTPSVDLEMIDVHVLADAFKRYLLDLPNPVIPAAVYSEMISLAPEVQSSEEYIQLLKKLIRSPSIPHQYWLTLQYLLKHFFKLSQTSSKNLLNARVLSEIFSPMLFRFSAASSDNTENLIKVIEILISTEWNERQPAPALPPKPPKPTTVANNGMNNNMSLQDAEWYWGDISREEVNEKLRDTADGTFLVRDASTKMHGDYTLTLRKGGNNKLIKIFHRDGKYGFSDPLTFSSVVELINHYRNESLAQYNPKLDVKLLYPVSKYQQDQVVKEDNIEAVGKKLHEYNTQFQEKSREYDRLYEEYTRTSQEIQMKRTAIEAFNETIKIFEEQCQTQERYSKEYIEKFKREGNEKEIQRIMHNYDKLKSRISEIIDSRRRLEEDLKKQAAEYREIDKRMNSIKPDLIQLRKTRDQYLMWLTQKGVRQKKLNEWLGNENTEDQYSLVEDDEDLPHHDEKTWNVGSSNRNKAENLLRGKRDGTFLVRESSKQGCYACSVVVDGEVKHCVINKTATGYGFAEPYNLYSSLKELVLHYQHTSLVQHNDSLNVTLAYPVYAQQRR

B1: PDK1 (3‐Phosphoinositide‐Dependent Protein Kinase‐1) (protein, UniProt O15530 1-556)
chain: MARTTSQLYDAVPIQSSVVLCSCPSPSMVRTQTESSTPPGIPGGSRQGPAMDGTAAEPRPGAGSLQHAQPPPQPRKKRPEDFKFGKILGEGSFSTVVLARELATSREYAIKILEKRHIIKENKVPYVTRERDVMSRLDHPFFVKLYFTFQDDEKLYFGLSYAKNGELLKYIRKIGSFDETCTRFYTAEIVSALEYLHGKGIIHRDLKPENILLNEDMHIQITDFGTAKVLSPESKQARANSFVGTAQYVSPELLTEKSACKSSDLWALGCIIYQLVAGLPPFRAGNEYLIFQKIIKLEYDFPEKFFPKARDLVEKLLVLDATKRLGCEEMEGYGPLKAHPFFESVTWENLHQQTPPKLTAYLPAMSEDDEDCYGNYDNLLSQFGCMQVSSSSSSHSLSASDTGLPQRSGSNIEQYIHDLDSNSFELDLQFSEDEKRLLLEKQAGGNPWHQFVENNLILKMGPVDKRKGLFARRRQLLLTEGPHLYYVDPVNKVLKGEIPWSQELRPEAKNFKTFFVHTPNRTYYLMDPSGNAHKWCRKIQEVWRQRYQSHPDAAVQ
B2: PHLPP2 (protein, UniProt Q6ZVD8 1-1323)
chain: MKRNGSRNCLNRRSRFGSRERDWLREDVKRGCVYLYGADTTTATTTTTTSSSSSSSSSSSDLHLVLCTVETPASEICAGEGRESLYLQLHGDLVRRLEPTERPLQIVYDYLSRLGFDDPVRIQEEATNPDLGCMIRFYGEKPCHMDRLDRILLSGIYNVRKGKTQLHKWAERLVVLCGTCLIVSSVKDCQTGKMHILPLVGGKIEEVKRRQYSLAFSSAGAQAQTYHVSFETLAEYQRWQRQASKVVSQRISTVDLSCYSLEEVPEHLFYSQDITYLNLRHNFMQLERPGGLDTLYKFSQLKGLNLSHNKLGLFPILLCEISTLTELNLSCNGFHDLPSQIGNLLNLQTLCLDGNFLTTLPEELGNLQQLSSLGISFNNFSQIPEVYEKLTMLDRVVMAGNCLEVLNLGVLNRMNHIKHVDLRMNHLKTMVIENLEGNKHITHVDLRDNRLTDLDLSSLCSLEQLHCGRNQLRELTLSGFSLRTLYASSNRLTAVNVYPVPSLLTFLDLSRNLLECVPDWACEAKKIEVLDVSYNLLTEVPVRILSSLSLRKLMLGHNHVQNLPTLVEHIPLEVLDLQHNALTRLPDTLFSKALNLRYLNASANSLESLPSACTGEESLSMLQLLYLTNNLLTDQCIPVLVGHLHLRILHLANNQLQTFPASKLNKLEQLEELNLSGNKLKTIPTTIANCKRLHTLVAHSNNISIFPEILQLPQIQFVDLSCNDLTEILIPEALPATLQDLDLTGNTNLVLEHKTLDIFSHITTLKIDQKPLPTTDSTVTSTFWSHGLAEMAGQRNKLCVSALAMDSFAEGVGAVYGMFDGDRNEELPRLLQCTMADVLLEEVQQSTNDTVFMANTFLVSHRKLGMAGQKLGSSALLCYIRPDTADPASSFSLTVANVGTCQAVLCRGGKPVPLSKVFSLEQDPEEAQRVKDQKAIITEDNKVNGVTCCTRMLGCTYLYPWILPKPHISSTPLTIQDELLILGNKALWEHLSYTEAVNAVRHVQDPLAAAKKLCTLAQSYGCQDNVGAMVVYLNIGEEGCTCEMNGLTLPGPVGFASTTTIKDAPKPATPSSSSGIASEFSSEMSTSEVSSEVGSTASDEHNAGGLDTALLPRPERRCSLHPTPTSGLFQRQPSSATFSSNQSDNGLDSDDDQPVEGVITNGSKVEVEVDIHCCRGRDLENSPPLIESSPTLCSEEHARGSCFGIRRQNSVNSGMLLPMSKDRMELQKSPSTSCLYGKKLSNGSIVPLEDSLNLIEVATEVPKRKTGYFAAPTQMEPEDQFVVPHDLEEEVKEQMKQHQDSRLEPEPHEEDRTEPPEEFDTAL

target: T1, TMCO3 (IP experiments whose cells are not stated) (UniProt Q6UWJ1); experiment: co-IP; CO-IP of TMCO3 with classic PI3K subunits and other molecules that affect AKT activation; cells not given
T1 sequence: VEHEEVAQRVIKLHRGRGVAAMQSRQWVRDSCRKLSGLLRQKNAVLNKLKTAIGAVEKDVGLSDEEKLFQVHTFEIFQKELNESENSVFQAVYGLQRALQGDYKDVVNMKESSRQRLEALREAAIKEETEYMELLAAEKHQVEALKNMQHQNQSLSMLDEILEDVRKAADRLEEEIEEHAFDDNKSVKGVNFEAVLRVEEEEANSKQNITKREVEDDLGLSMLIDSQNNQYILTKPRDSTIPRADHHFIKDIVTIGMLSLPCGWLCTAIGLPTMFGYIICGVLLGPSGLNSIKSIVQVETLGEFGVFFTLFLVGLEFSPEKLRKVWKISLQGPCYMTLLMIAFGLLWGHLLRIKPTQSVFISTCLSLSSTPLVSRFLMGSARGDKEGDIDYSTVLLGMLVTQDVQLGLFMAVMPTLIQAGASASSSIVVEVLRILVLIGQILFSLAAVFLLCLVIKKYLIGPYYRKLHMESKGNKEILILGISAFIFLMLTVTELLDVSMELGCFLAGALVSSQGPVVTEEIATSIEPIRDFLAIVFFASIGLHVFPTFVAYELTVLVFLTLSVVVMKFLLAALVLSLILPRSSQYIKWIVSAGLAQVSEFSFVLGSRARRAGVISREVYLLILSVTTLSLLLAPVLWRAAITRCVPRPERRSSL

binding, no binding:
p85α (from UniProt P27986 1-724)
B1
B2
